Data on one substance can be found in article PMC12361432.

Numbering of substitutions follows the chain as printed. No constants are given. Whether binding was seen depends on the method and setting. In cells and extracts the contact can be indirect. Some binding calls cover weakened binding; strength is not graded here. Sequences can lack the tags named with a protein.

For one test, the target named is T1, CCR9-RLuc8 Q267A (human).
T1 sequence: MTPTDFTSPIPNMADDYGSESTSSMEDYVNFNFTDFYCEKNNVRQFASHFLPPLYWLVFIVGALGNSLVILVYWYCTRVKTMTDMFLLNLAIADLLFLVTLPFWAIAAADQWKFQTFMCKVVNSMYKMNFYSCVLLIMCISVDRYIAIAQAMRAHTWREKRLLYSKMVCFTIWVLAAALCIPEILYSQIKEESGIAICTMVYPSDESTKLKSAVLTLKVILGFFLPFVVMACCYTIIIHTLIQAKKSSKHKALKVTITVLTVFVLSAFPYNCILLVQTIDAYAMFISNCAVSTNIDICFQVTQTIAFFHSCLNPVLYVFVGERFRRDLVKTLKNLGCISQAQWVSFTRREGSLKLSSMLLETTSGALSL
The test is described as follows: FRET or BRET; basal BRET between RLuc8-tagged receptor and YFP-tagged Arr3 in HEK293T cells in the absence of agonist stimulation. (In BRET a luciferase serves as donor, and the signal depends on an acceptor being close.)

Test [1] has as its target T2, CCR9-RLuc8 Y126A (human).
T2 sequence: T1 sequence with Y126A, A267Q
Described as above.

The target in test [2] is T3, CCR9-RLuc8 F299A (human).
T3 sequence: T1 sequence with A267Q, F299A
The test is described as above.

The target in test [3] is T4, CCR9-RLuc8 N271A (human).
T4 sequence: T1 sequence with A267Q, N271A
Described as above.

A further test deals with T5, CCR9-RLuc8 S207A (human).
T5 sequence: T1 sequence with S207A, A267Q
The test is described as follows: FRET or BRET; HEK293T cells expressing CCR9-RLuc8 (WT or mutant) and YFP-Arr3, stimulated with CCL25 or [1P6]CCL25 at six concentrations in BRET buffer; area under the concentration-response curve against WT.

The target in test [4] is T2, CCR9-RLuc8 Y126A (human). The test is described as above.
Test [5] addresses T3, CCR9-RLuc8 F299A (human). The description is as above.
The target of test [6] is T4, CCR9-RLuc8 N271A (human). The description is as above.
The target of test [7] is T6, CCR9 C-terminally fused to the Renilla luciferase variant RLuc8, wild type (human).
T6 sequence: T1 sequence with A267Q
The test is described as above.

The next test has as its target T7, CCR9-RLuc8 T208A (human).
T7 sequence: T1 sequence with T208A, A267Q
The test is described as above.

As for “YFP-arrestin 3 (from UniProt P32121 1-409)”, the binding entry with CCR9-RLuc8 Q267A (human), with CCR9-RLuc8 Y126A (human) [1], with CCR9-RLuc8 F299A (human) [2], with CCR9-RLuc8 N271A (human) [3], with CCR9-RLuc8 S207A (human) and with CCR9-RLuc8 Y126A (human) [4] was “binds” throughout. The binding result with CCR9-RLuc8 F299A (human) [5] was “binds”; with CCR9-RLuc8 N271A (human) [6], “binds”; in test [7], “binds”; in the test with CCR9-RLuc8 T208A (human), “no binding”.
